The subject of the series is GLP‐2 receptor. The series is described as follows: autoradiography in mice. It counts as in vivo. The settings on record: WT mice, 2–3 pmol into inferior caval vein.

Square brackets hold non-standard residues; d marks the D form. Peptide text beside a SMILES is read from it. Tyr(3-I) = N[C@@H](Cc1ccc(O)c(I)c1)C(=O)O

Consider one compound from paper PMC9303331, “Novel agonist and antagonist radioligands for the GLP‐2 receptor. Useful tools for studies of basic GLP‐2 receptor pharmacology” (British Journal of Pharmacology, 2022).

Regarding `CC[C@H](C)[C@H](NC(=O)[C@H](Cc1ccccc1)NC(=O)[C@H](CC(=O)O)NC(=O)[C@H](CCCNC(=N)N)NC(=O)[C@H](C)NC(=O)[C@H](C)NC(=O)[C@H](CC(C)C)NC(=O)[C@H](CC(N)=O)NC(=O)[C@H](CC(=O)O)NC(=O)[C@H](CC(C)C)NC(=O)[C@@H](NC(=O)[C@@H](NC(=O)[C@H](CC(N)=O)NC(=O)[C@H](Cc1ccc(O)c(I)c1)NC(=O)[C@H](CCC(=O)O)NC(=O)[C@H](CC(=O)O)NC(=O)[C@H](CO)NC(=O)[C@H](Cc1ccccc1)NC(=O)[C@H](CO)NC(=O)CNC(=O)[C@H](CC(=O)O)NC(=O)[C@H](C)NC(=O)[C@@H](N)Cc1c[nH]cn1)[C@@H](C)O)[C@@H](C)CC)C(=O)N[C@@H](CC(N)=O)C(=O)N[C@@H](Cc1c[nH]c2ccccc12)C(=O)N[C@@H](CC(C)C)C(=O)N[C@H](C(=O)N[C@@H](CCC(N)=O)C(=O)N[C@H](C(=O)N[C@@H](CCCCN)C(=O)N[C@H](C(=O)N[C@H](C(=O)N[C@@H](CC(=O)O)C(=O)O)[C@@H](C)O)[C@@H](C)CC)[C@@H](C)O)[C@@H](C)CC` [[^125I]‐hGLP‐2(1–33,M10Y)] (H-HADGSFSDE[Tyr(3-I)]NTILDNLAARDFINWLIQTKITD-OH; N-terminus and C-terminus assumed), the “labelling of small intestine” value (fixation after 10 min) was “strong labelling in the SEMFs of the GI tract”. Moreover, the labelling of pancreas entry (abrogated by unlabelled peptide) was “in pancreatic islet cells”.
